Results as given in PubChem BioAssay AID1273 (Columbia University Molecular Screening Center, 2008).
The campaign covered roughly 130,000 compounds. About 1,200 (0.92%) were called active. The shares of active, inactive and inconclusive entries below differ from those in the screen.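 Rule for the calls: active = inhibition above the mean plus 3 SD, with well images judged a real hit on visual review (cut at about 60% in these data, passing the limit was not always enough); inconclusive = inhibition over the cutoff but images rejected on review; inactive = inhibition not above the cutoff.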

assay: inhibitors of insulin promoter-driven GFP, primary screen, imaging, TRM-6 cells (human fetal islet line), eGFP reporter, cell count (AID 1273); conditions: at 2 µM, active compounds read high, reporter expression induced with tamoxifen

Row | SMILES | inhibition
1 | C=CCn1c(SCc2ccc(C#N)cc2)nnc1-c1ccccc1 | inactive: -73.3%
2 | CCOC(=O)N1CCC(NC(=O)c2cc(C(=O)Nc3ccc(S(=O)(=O)N4CCOCC4)cc3)ccc2CO)CC1 | inactive: -5.88%
3 | O=C(COc1ccccc1)N1c2ccccc2Sc2ccccc21 | inconclusive: 63.6%
4 | Cc1cccc(NC(=O)C2C3CCC4C(CCC32)C4(Cl)Cl)c1 (stereo unspecified) | inactive: 3.33%
5 | CC(C)CCNC(=O)c1c[nH]c2ccc(S(=O)(=O)N3CCC4(CC3)OCCO4)cc2c1=O | inconclusive: 64.3%
6 | COc1nc(Nc2ccc([N+](=O)[O-])cc2)nc(NC(C)C)n1 | inactive: -3.9%
7 | Cc1ccc2[nH]c3c(=O)n(N)c(C)nc3c2c1 | active: 93.8%
8 | CCCn1c(SCC(=O)Nc2ccc3c(c2)CCC3)n[nH]c1=O | inactive: 15.4%
9 | Cc1c(NC(=O)/C(C#N)=C/c2ccc(-c3ccc(Cl)c(Cl)c3)o2)c(=O)n(-c2ccccc2)n1C | inactive: -2.94%
10 | Cc1cc(C)n2c(SCc3c(C)noc3C)nnc2n1 | active: 80%
11 | Cc1cccc(N2CCc3c2nc2ccc(Br)cc2c3N)c1 | inconclusive: 81%
12 | O=C(O)Cn1cc(C(=O)c2cccs2)c2ccccc21 | inconclusive: 76.9%
13 | CCOc1ccccc1C(=O)Nc1nnc(CC)s1 | inconclusive: 71.4%
14 | CCC(=O)Nc1ccc2nc(C)n(CC(=O)Nc3ccccc3)c(=O)c2c1 | inconclusive: 70%
15 | O=C(NCCc1ccccc1)C(c1cccs1)N(C(=O)CCl)c1ccc(Cl)cc1 (stereo unspecified) | inconclusive: 100%
16 | Cc1ccc(-c2nc3sc4c(N)ncnc4c3c3c2CCCC3)cc1 | inactive: -35%
17 | c1ccc2c(c1)Sc1ccccc1-n1cnnc1-2 | inconclusive: 96.5%
18 | COc1ccc(NS(=O)(=O)c2cccc(NC(=O)NC3CCCCC3)c2)cc1 | inactive: -3.45%
19 | O=[N+]([O-])c1ccc(C2Oc3ccccc3C3CC(c4ccccc4)=NN32)s1 (stereo unspecified) | inactive: -79%
20 | NC(=O)COC(=O)CCCc1c[nH]c2ccccc12 | inconclusive: 71.4%
21 | CC1CCN(Cc2nc3c(c(=O)n(C)c(=O)n3C)n2Cc2c(F)cccc2Cl)CC1 | inconclusive: 43.1%
22 | CCOCCCn1c(C)nc2c(c1=O)c1nc3ccccc3nc1n2-c1ccc(C)cc1 | inconclusive: 71.4%
23 | COc1cccc(C2=NOC(C(=O)N3CCN(Cc4ccccc4)CC3)C2)c1OC (stereo unspecified) | inactive: 16.7%
24 | Cc1ccc(NC(=O)C2CCCN(S(=O)(=O)c3ccc4c(c3)oc(=O)n4C)C2)nc1 (stereo unspecified) | inconclusive: 100%

Row | SMILES | inhibition
25 | Cc1cc(C)cc(C(=O)NC(=S)Nc2ccc(Cc3ccncc3)cc2)c1 | inactive: 33.3%
26 | COC(=O)Nc1ccc(S(=O)(=O)N2CCCC(C(=O)NC3CCS(=O)(=O)C3)C2)cc1 (stereo unspecified) | inactive: 35.1%
27 | Cn1c(NCc2cccc(Br)c2)nc2ccccc21 | inconclusive: 53.2%
28 | Fc1ccccc1N1CCN(CC2CC3C=CC2C3)CC1 (stereo unspecified) | inactive: -34.3%
29 | CCOC(=O)c1c2n(c3ccc(O)cc13)CCCCC2 | active: 85.7%
30 | COc1ccc(/C=N/N2CCN(C)CC2)cc1O | inactive: 12.5%
31 | Cc1ccc(S(=O)(=O)NNC(=O)c2cnn(-c3ccccc3)c2-n2cccc2)cc1 | inconclusive: 79.2%
32 | CC(NC(=O)C1CCCC1)C1CC2CCC1C2 (stereo unspecified) | active: 71.4%
33 | COc1ccc(CC(=O)NNC(=O)CSc2nnc(Cc3ccc(OC)cc3)n2-c2ccccc2)cc1 | active: 71.4%
34 | CN(C)CCCNS(=O)(=O)c1ccc(Cl)s1 | inactive: -5.26%
35 | Nc1ccc2nc(SCc3cccc(F)c3)sc2c1 | inconclusive: 77.8%
36 | Cc1cccc(N2CCN(C(=O)C(C)C)CC2)c1C | active: 78.6%
37 | Cc1ccc(/C=C/C(=O)Nc2cc(C)on2)cc1 | inconclusive: 71.8%
38 | Cc1ccccc1N(CC(=O)Nc1ccccc1C(=O)O)S(C)(=O)=O | inactive: 45.2%
39 | CN(C(=S)Nc1ccc(Oc2ccccc2)cc1)c1ccc(O)cc1 | inactive: 38.5%
40 | COc1ccc2c(CCNC(=O)c3ccco3)c[nH]c2c1 | inconclusive: 70.6%
41 | O=c1c(-n2cncn2)c[nH]n1-c1cccc(Cl)n1 | active: 91.7%
42 | COc1ccc(N2CC(C(=O)NCCC3=CCCCC3)CC2=O)cc1 (stereo unspecified) | inconclusive: 72.7%
43 | Cc1ccc(/C=c2\sc3nc(-c4ccco4)nn3c2=O)o1 | inconclusive: 71.4%
44 | Cc1ccc(C(=O)OC(C)CN2CCOCC2)cc1 (stereo unspecified) | inconclusive: 72.7%
45 | FC(F)(F)c1ccc2c(c1)nc1n2CCCC1 | active: 73.1%
46 | C=CCc1c(C)nc(SC(C)C)[nH]c1=O | inconclusive: 89.7%
47 | Cc1ccc(NC2=NC(c3ccccc3)n3c(nc(C)cc3=O)N2)cc1 (stereo unspecified) | inconclusive: 82.8%
48 | Cc1nn2c(C(F)(F)F)cc(-c3ccc(Cl)cc3)nc2c1C(=O)N1CCOCC1 | active: 78.6%

Row | SMILES | inhibition
49 | C[C@@H]1CC[C@@]2(O[C@H](CCO)C[C@@H](O)[C@@H]2O)O1 | inconclusive: 65%
50 | CCC(=O)N1c2ccccc2NC2=C(C(=O)CC(c3ccco3)C2)C1c1ccco1 (stereo unspecified) | inactive: 9.68%
51 | CCOC(=O)CCc1c(C)nc2cc(-c3ccccc3OC)[nH]n2c1=O | inconclusive: 85.7%
52 | CCOC(=O)CC(=O)CSc1ncnc2c1cnn2-c1ccccc1 | inconclusive: 100% [cytotoxic]
53 | CCCc1nc2ccccc2n2cc3c(=O)n(C)c(=O)n(C)c3c12 | inconclusive: 76.2%
54 | COc1ccc(NC(=O)CSc2ccc(-c3cccs3)nn2)c(OC)c1 | inconclusive: 75%
55 | CCCc1cc(C(F)(F)F)c(C#N)c(=O)[nH]1 | active: 67.9%
56 | CCOc1ccccc1NC(=O)c1cc(S(=O)(=O)N2CCC3(CC2)OCCO3)ccc1F | inconclusive: 72.7%
57 | CC(=O)Nc1ccc(C(=O)OCc2ccc(F)cc2Cl)cc1 | inactive: -18.5%
58 | COc1cccc(C(=O)Nn2cnnc2)c1 | inconclusive: 73.3%
59 | O=C(CN1N=C(c2ccc(Cl)cc2)CCC1=O)NCCN1CCc2ccccc2C1 | inactive: -80.7%
60 | CC(C)(C)NC(=O)C(c1ccco1)N(C(=O)c1ccc(CN2CCOCC2)o1)c1ccccc1 (stereo unspecified) | inconclusive: 71.4%
61 | COc1ccc(C(=O)Nc2c(N)nc(SCC(=O)N3CCCCCC3)[nH]c2=O)cc1OC | inconclusive: 70%
62 | O=C(Nc1cc(Cl)cc(Cl)c1)c1ccc(Cn2c(=O)[nH]c3ccsc3c2=O)cc1 | inconclusive: 61%
63 | CCCCn1c(O)c(/C=C/C=C/C=Nc2ccccc2)sc1=S | inactive: -225%
64 | Cc1ccc(S(=O)(=O)N(C)C)cc1NC(=O)COC(=O)/C(=C/c1ccc(F)cc1)c1cccs1 | active: 64.3%
65 | COCCNC(=O)c1cc(-c2ccc(Cl)c(Cl)c2)on1 | inconclusive: 70%
66 | O=c1[nH]c(-c2cccs2)nc2ccccc12 | inconclusive: 78.6%
67 | Fc1ccc(/C=N/Nc2ncnc3nc[nH]c23)cc1F | active: 60%
68 | O=C(NCc1ccco1)C1CCC(N2C(=O)c3ccccc3C2=O)CC1 (stereo unspecified) | inconclusive: 72.2%
69 | Cc1nc(Nc2cccc(C(C)O)c2)c2nnn(Cc3ccc(F)cc3)c2n1 (stereo unspecified) | inactive: 25%
70 | O=C(N/N=C/C=C/c1ccco1)c1cccnc1 | active: 100%
71 | Cc1cccc(-c2nnc(N)s2)c1 | inconclusive: 80%
72 | COC(=O)/C(=C/N(C)C)C(=O)N1CCN(c2ccc(Cl)c(Cl)c2)CC1 | inconclusive: 72.7%

27 entries from above, as tab-separated lines:
Row	SMILES	inhibition
1	C=CCn1c(SCc2ccc(C#N)cc2)nnc1-c1ccccc1	inactive: -73.3%
7	Cc1ccc2[nH]c3c(=O)n(N)c(C)nc3c2c1	active: 93.8%
14	CCC(=O)Nc1ccc2nc(C)n(CC(=O)Nc3ccccc3)c(=O)c2c1	inconclusive: 70%
15	O=C(NCCc1ccccc1)C(c1cccs1)N(C(=O)CCl)c1ccc(Cl)cc1 (stereo unspecified)	inconclusive: 100%
16	Cc1ccc(-c2nc3sc4c(N)ncnc4c3c3c2CCCC3)cc1	inactive: -35%
17	c1ccc2c(c1)Sc1ccccc1-n1cnnc1-2	inconclusive: 96.5%
19	O=[N+]([O-])c1ccc(C2Oc3ccccc3C3CC(c4ccccc4)=NN32)s1 (stereo unspecified)	inactive: -79%
21	CC1CCN(Cc2nc3c(c(=O)n(C)c(=O)n3C)n2Cc2c(F)cccc2Cl)CC1	inconclusive: 43.1%
24	Cc1ccc(NC(=O)C2CCCN(S(=O)(=O)c3ccc4c(c3)oc(=O)n4C)C2)nc1 (stereo unspecified)	inconclusive: 100%
27	Cn1c(NCc2cccc(Br)c2)nc2ccccc21	inconclusive: 53.2%
32	CC(NC(=O)C1CCCC1)C1CC2CCC1C2 (stereo unspecified)	active: 71.4%
35	Nc1ccc2nc(SCc3cccc(F)c3)sc2c1	inconclusive: 77.8%
38	Cc1ccccc1N(CC(=O)Nc1ccccc1C(=O)O)S(C)(=O)=O	inactive: 45.2%
39	CN(C(=S)Nc1ccc(Oc2ccccc2)cc1)c1ccc(O)cc1	inactive: 38.5%
46	C=CCc1c(C)nc(SC(C)C)[nH]c1=O	inconclusive: 89.7%
48	Cc1nn2c(C(F)(F)F)cc(-c3ccc(Cl)cc3)nc2c1C(=O)N1CCOCC1	active: 78.6%
50	CCC(=O)N1c2ccccc2NC2=C(C(=O)CC(c3ccco3)C2)C1c1ccco1 (stereo unspecified)	inactive: 9.68%
51	CCOC(=O)CCc1c(C)nc2cc(-c3ccccc3OC)[nH]n2c1=O	inconclusive: 85.7%
52	CCOC(=O)CC(=O)CSc1ncnc2c1cnn2-c1ccccc1	inconclusive: 100% [cytotoxic]
54	COc1ccc(NC(=O)CSc2ccc(-c3cccs3)nn2)c(OC)c1	inconclusive: 75%
55	CCCc1cc(C(F)(F)F)c(C#N)c(=O)[nH]1	active: 67.9%
61	COc1ccc(C(=O)Nc2c(N)nc(SCC(=O)N3CCCCCC3)[nH]c2=O)cc1OC	inconclusive: 70%
62	O=C(Nc1cc(Cl)cc(Cl)c1)c1ccc(Cn2c(=O)[nH]c3ccsc3c2=O)cc1	inconclusive: 61%
64	Cc1ccc(S(=O)(=O)N(C)C)cc1NC(=O)COC(=O)/C(=C/c1ccc(F)cc1)c1cccs1	active: 64.3%
66	O=c1[nH]c(-c2cccs2)nc2ccccc12	inconclusive: 78.6%
67	Fc1ccc(/C=N/Nc2ncnc3nc[nH]c23)cc1F	active: 60%
70	O=C(N/N=C/C=C/c1ccco1)c1cccnc1	active: 100%

Carrying on:

Row | SMILES | inhibition
73 | CCN(CC)c1ccc(/C=N/NC(=S)NCc2ccco2)cc1 | active: 100%
74 | Cc1cc(C)cc(OCCCC(=O)O)c1 | inconclusive: 85.7%
75 | Cc1nc(NC(=O)C2CC2)sc1C(=O)N(C)C | inconclusive: 75%
76 | O=C(Nc1cccc(Cl)c1N1CCCC1)c1cc2ccccc2o1 | inactive: 40.5%
77 | CCCCCn1c(=O)[nH]c2cc(C(=O)NCc3ccccn3)ccc2c1=O | inconclusive: 75%
78 | O=C(COC(=O)c1ccc(Br)o1)NC1CCCCC1 | inactive: 0%
79 | CCc1nc(NC(C)C)c2oc3ccccc3c2n1 | active: 88.9%
80 | COc1ccc(-n2nnnc2SCC(=O)c2ccc3c(c2)OCCO3)cc1 | active: 79.3%
81 | Cc1cccc(C(=O)Nc2ccccc2SCC(=O)Nc2ccc(C)c(Cl)c2)c1 | inactive: 3.03%
82 | CCOC(=O)c1c(NC(=O)COC)sc(C)c1C | inconclusive: 71.3%
83 | Cc1nc2ccccc2n1CC(O)COc1ccccc1Cl (stereo unspecified) | inconclusive: 71.4%
84 | COc1ccc(Cl)cc1-c1nc(-c2ccncc2)no1 | active: 81%
85 | CCCc1nccn1S(=O)(=O)c1cc(OC)ccc1OC | active: 75%
86 | Cc1cccc(OCC(=O)NCCN2CCOCC2)c1 | inconclusive: 75%
87 | COC(=O)c1ccc(Cc2ccccc2)o1 | active: 92.9%
88 | COc1ccc(-c2nc(SC)n(C(=O)c3ccco3)n2)cc1 | inconclusive: 79.3%
89 | COc1cccc(-c2nc(-c3ccc(NC(=O)c4ccncc4)cc3)no2)c1 | inconclusive: 76.9%
90 | Cc1cc2nc(-c3ccncc3)cc(C(F)(F)F)n2n1 | inactive: -26.7%
91 | Cc1cc(C)n(-c2nc3c(c(=O)n(C)c(=O)n3C)n2CC(O)COc2ccccc2C)n1 (stereo unspecified) | active: 76.9%
92 | O=C1c2ccccc2C2NC(=O)C3(CCCCC3)N12 (stereo unspecified) | inconclusive: 62.5%
93 | COc1cc2c(C(=O)O)c(C)n(CC(C)C)c2c2ccccc12 | inactive: -35.9%
94 | CCC(Sc1nc2cc(OC)c(OC)cc2c(=O)n1CCc1ccc(OC)c(OC)c1)C(=O)NCCOC (stereo unspecified) | inactive: 21.4%
95 | CCn1cc(CNC(=O)c2cc(COc3ccc(F)cc3Cl)on2)cn1 | inconclusive: 73.3%
96 | C=CCNc1ncnc2c1cnn2-c1cccc(C)c1 | inconclusive: 85.7%
